Results: PubChem BioAssay (EPA / NIEHS)
The shares of active, inactive and inconclusive entries below differ from those in the screen. How the source made its calls: active means hit-call score of the fitted dose curve at least 0.9, where 1 is the maximum; inconclusive means response in the unintended direction; inactive means score below 0.9. A potency beside an inconclusive call is a rough fit, not a confirmed value.

Chains of the proteins cited; added tags and fusions are not shown. Lines headed by an entry give the natural chain unless they say otherwise; changes in a name come on top.
UniProt P51589: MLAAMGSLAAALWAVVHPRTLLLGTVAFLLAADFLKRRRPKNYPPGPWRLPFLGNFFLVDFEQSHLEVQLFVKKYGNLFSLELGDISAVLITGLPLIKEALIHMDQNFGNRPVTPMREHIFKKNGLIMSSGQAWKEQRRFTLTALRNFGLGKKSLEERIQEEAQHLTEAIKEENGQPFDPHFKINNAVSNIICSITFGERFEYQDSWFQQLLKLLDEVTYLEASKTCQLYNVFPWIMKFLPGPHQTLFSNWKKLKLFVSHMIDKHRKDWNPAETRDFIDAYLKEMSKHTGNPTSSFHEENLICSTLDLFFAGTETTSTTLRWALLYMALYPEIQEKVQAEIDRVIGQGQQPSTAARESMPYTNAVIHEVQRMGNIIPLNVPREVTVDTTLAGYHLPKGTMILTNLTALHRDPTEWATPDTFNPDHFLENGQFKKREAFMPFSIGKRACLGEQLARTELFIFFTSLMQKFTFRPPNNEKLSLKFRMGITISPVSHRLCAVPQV
UniProt Q9HCS2: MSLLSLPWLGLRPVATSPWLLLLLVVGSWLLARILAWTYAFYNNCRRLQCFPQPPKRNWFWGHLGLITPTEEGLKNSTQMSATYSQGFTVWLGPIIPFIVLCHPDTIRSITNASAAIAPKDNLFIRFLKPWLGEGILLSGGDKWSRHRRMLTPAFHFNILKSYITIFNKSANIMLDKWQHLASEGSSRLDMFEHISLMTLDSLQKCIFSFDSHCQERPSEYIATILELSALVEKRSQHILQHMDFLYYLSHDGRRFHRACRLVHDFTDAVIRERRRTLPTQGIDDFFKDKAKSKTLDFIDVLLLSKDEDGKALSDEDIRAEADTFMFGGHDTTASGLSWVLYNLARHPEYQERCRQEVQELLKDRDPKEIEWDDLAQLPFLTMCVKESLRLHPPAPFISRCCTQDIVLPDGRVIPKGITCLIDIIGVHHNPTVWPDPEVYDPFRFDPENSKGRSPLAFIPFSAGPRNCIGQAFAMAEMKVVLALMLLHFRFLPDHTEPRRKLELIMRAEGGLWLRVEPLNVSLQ

Columns and labels:
[1] = molecular target: human CYP2J2, CYP2J2 (gene 1573) (UniProt P51589); test: NVS_ADME_hCYP2J2: NovaScreen (NVS) CYP450-related Enzyme Activity (ADME) Assay for human CYP2J2 (AID 2283106)
Procedure, shortened: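 Cell-free assay of recombinant CYP2J2 with a fluorogenic substrate, read 1 h after dosing; loss of signal versus acetonitrile. Primary screen at 10 uM in duplicate, then concentration-response up to 20 uM for chemicals passing threshold (e.g., 30% inhibition).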

[2] = molecular target: human CYP4F12, CYP4F12 (gene 66002) (UniProt Q9HCS2); test: NVS_ADME_hCYP4F12: NovaScreen (NVS) CYP450-related Enzyme Activity (ADME) Assay for human CYP4F12 (AID 2283111)
Procedure, shortened: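 Cell-free fluorescence assay of recombinant human CYP4F12 activity on a specific substrate, read 0.5 h after dosing. Primary screen in duplicate at 10 uM, then concentration series for actives; loss of signal fitted against acetonitrile negative control.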

[3] = test system: rat CYP2B1, gene 24300; test: NVS_ADME_rCYP2B1: NovaScreen (NVS) CYP450-related Enzyme Activity (ADME) Assay for rat CYP2B1 (AID 2283117)
Procedure, shortened: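 Recombinant rat CYP2B1 with fluorogenic substrate, read at 0.75 h. Primary screen in duplicate at 10 uM; compounds meeting threshold (e.g., 30% inhibition) re-run in concentration-response up to 20 uM. Fitted against acetonitrile control.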

| Compound | AC50 [1] | AC50 [2] | AC50 [3] |
| --- | --- | --- | --- |
| CCCCCC(C)OC(=O)COc1ccc(Cl)c2cccnc12 (stereo not drawn) | inconclusive: 0.0592 µM | – | – |
| COC(=O)CSc1cc(N=c2sc(=O)n3n2CCCC3)c(F)cc1Cl | – | inconclusive: 4.37 µM | inconclusive: 10 µM |
